No constants are given. Whether binding was seen depends on the method and setting. Binding can be weak; no strength is given. For part of these data: Sequences can lack the tags named with a protein.
Legend:
Experiment in all cases: two-hybrid; Matchmaker GAL4 Two-Hybrid System, yeast strain Y2HGold co-transformed with paired constructs; growth on selective SD/-Leu-Trp-His (or -LWHA) media without or with 10 µM ABA
[1] = target: AtABI1 (Arabidopsis clade A PP2C), two-hybrid fusion (Arabidopsis) (UniProt P49597)
[2] = target: T1, HAB2 (Arabidopsis clade A PP2C), two-hybrid fusion (Arabidopsis) (UniProt Q9LNP9)
T1 sequence: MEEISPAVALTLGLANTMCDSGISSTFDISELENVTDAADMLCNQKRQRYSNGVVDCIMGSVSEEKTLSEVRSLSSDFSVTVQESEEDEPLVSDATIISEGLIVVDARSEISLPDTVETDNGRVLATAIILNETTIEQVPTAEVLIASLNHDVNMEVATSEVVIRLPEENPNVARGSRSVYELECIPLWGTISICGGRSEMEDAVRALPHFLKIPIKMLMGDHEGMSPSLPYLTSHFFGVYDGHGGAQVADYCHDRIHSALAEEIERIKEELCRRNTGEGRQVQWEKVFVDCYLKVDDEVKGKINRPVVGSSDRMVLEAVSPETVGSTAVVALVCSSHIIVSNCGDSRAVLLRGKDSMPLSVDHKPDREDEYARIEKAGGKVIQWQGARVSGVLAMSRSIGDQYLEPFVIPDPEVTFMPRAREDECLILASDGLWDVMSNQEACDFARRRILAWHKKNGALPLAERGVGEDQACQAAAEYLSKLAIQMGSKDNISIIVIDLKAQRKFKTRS

Protein sequences, listed by entry. Tags and fused reporters are not part of them. Lines headed by an entry give the natural chain unless they say otherwise; changes in a name come on top.
UniProt P49597, whole entry, stated change not applied: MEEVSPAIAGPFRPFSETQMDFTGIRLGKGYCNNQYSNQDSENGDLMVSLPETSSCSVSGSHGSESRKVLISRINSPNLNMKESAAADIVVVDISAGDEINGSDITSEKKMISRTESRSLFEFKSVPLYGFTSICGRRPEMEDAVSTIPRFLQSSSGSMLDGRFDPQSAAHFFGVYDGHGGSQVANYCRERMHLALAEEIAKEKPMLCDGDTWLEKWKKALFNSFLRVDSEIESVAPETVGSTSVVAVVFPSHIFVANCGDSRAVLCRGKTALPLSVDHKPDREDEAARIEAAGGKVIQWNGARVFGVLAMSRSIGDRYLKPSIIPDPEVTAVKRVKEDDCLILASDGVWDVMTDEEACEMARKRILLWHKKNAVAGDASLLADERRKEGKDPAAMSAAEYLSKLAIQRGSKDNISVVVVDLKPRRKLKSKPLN

[3] = target: T2, PP2CA (Arabidopsis clade A PP2C), two-hybrid fusion (Arabidopsis) (UniProt P49598)
T2 sequence: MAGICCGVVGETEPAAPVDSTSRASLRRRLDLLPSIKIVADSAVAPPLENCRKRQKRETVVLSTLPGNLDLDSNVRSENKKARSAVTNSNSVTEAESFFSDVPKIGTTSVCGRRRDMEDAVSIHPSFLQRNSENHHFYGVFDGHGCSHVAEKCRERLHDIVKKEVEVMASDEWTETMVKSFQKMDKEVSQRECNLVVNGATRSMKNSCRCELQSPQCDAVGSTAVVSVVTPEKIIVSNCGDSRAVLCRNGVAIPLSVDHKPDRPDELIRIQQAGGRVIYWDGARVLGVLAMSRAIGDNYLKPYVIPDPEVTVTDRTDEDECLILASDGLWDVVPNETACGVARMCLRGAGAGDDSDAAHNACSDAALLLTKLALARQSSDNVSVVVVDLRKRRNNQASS

Measured: binding

Paraburkholderia rhynchosiae PYL (PrPYL) (from UniProt A0A2N7VMU2)
binds weakly: all assays above
